# Laboratory results as given in the supplement of paper PMC12873370.
# Several values for one entry are separate records, joined by “and”; a condition that tells them apart may be missing. Equal values may be shown once. Some of the results follow. Repeats are few or missing, and single values can be far off.
# What was measured:
# [1] = test system: MEPP (mouse ovarian epithelium Trp53/Pten KO); assay: cell viability relative to untreated (fraction); higher = less growth inhibition; conditions: 5 µM; 3 days
# [2] = test system: PREPP (mouse prostate epithelium Trp53/Pten KO); assay: as above; conditions: 5 µM; 3 days
structure (smiles),measurement,setting,value
C[C@@H]1O[C@@H](O[C@H]2[C@H](Oc3cc(O)c(C(=O)CCc4ccc(O)cc4)c(O)c3)O[C@H](CO)[C@@H](O)[C@@H]2O)[C@H](O)[C@H](O)[C@H]1O,cell viability,[1],0.817
same,cell viability,[2],0.845
Cc1ncc(COP(=O)(O)O)c(C=O)c1O,cell viability,[1],0.813 and 0.943
same,cell viability,[2],0.991 and 0.865
CC(=O)OCC(=O)[C@H]1CC[C@H]2[C@@H]3CCC4=CC(=O)CC[C@]4(C)[C@H]3CC[C@]12C,cell viability,[1],1.22
same,cell viability,[2],0.888
NCC(=O)O,cell viability,[1],0.89
same,cell viability,[2],1.02
N[C@H](CC(=O)O)C(=O)O,cell viability,[1],1.27
same,cell viability,[2],1.01
O=C(O)/C=C/C=C/C(=O)O,cell viability,[1],1.06
same,cell viability,[2],1.07
Nc1nc2c(ncn2COCCO)c(=O)[nH]1,cell viability,[1],1.03
same,cell viability,[2],0.984
O=C1c2ccccc2C(=O)c2c1ccc(O)c2O,cell viability,[1],1.05
same,cell viability,[2],0.937
CC[C@H](C)[C@@H]([C@@H](CC(=O)N1CCC[C@H]1[C@H](OC)[C@@H](C)C(=O)N[C@@H](Cc1ccccc1)c1nccs1)OC)N(C)C(=O)[C@@H](NC(=O)[C@H](C(C)C)N(C)C)C(C)C,cell viability,[1],0.546
same,cell viability,[2],0.705
CCC/C=C1\OC(=O)C2=C1CCC=C2,cell viability,[1],1.12
same,cell viability,[2],1.01
CCCCOC(=O)c1ccc(N)cc1,cell viability,[1],0.856
same,cell viability,[2],0.962
CC(C)=CCO,cell viability,[1],1.08
same,cell viability,[2],0.986
Cc1cn([C@H]2C[C@H](O)[C@@H](CO)O2)c(=O)[nH]c1=O,cell viability,[1],1.02
same,cell viability,[2],0.942
CC(C)(CO)[C@@H](O)C(=O)NCCC(=O)NCCSSCCNC(=O)CCNC(=O)[C@H](O)C(C)(C)CO,cell viability,[1],1.02
same,cell viability,[2],1.09
C[C@@H]1O[C@@H](O[C@@H]2[C@@H](O)[C@H](O)[C@@H](CO)O[C@H]2c2c(O)cc(O)c3c(=O)cc(-c4ccc(O)cc4)oc23)[C@H](O)[C@H](O)[C@H]1O,cell viability,[1],0.926
same,cell viability,[2],0.853
O=C(/C=C/c1ccc(O)cc1)CC(=O)/C=C/c1ccc(O)cc1,cell viability,[1],1.34
same,cell viability,[2],1.03
Cc1cc(O)cc(O[C@@H]2O[C@H](CO)[C@@H](O)[C@H](O)[C@H]2O)c1,cell viability,[1],0.858
same,cell viability,[2],0.909
CN1CCN(c2c(F)cc3c(=O)c(C(=O)O)cn4c3c2OCN4C)CC1,cell viability,[1],0.873
same,cell viability,[2],0.814
Nc1ncnc2c1ncn2[C@@H]1O[C@H](COP(=O)(O)OP(=O)(O)OP(=O)(O)O)[C@@H](O)[C@H]1O,cell viability,[1],0.91 and 1.11
same,cell viability,[2],1.15 and 1.01
CCOC(=O)C1=C[C@]2(CC)CCCN3CCc4c(n1c1ccccc41)[C@@H]32,cell viability,[1],0.861
same,cell viability,[2],0.802
CC(C)[C@@H]1CC[C@@H](C)C[C@H]1O,cell viability,[1],1.88
same,cell viability,[2],0.921
C=CCc1ccc(O)c(OC)c1,cell viability,[1],0.875
same,cell viability,[2],1.05
CC1(C)[C@@H](O[C@H]2O[C@H](C(=O)O)[C@@H](O)[C@H](O)[C@H]2O[C@@H]2O[C@H](C(=O)O)[C@@H](O)[C@H](O)[C@H]2O)CC[C@]2(C)[C@H]3C(=O)C=C4[C@@H]5C[C@@](C)(C(=O)O)CC[C@]5(C)CC[C@@]4(C)[C@]3(C)CC[C@@H]12,cell viability,[1],0.926 and 1.05
same,cell viability,[2],0.871 and 1.08
O=c1cc(-c2ccc(O)cc2)oc2cc(O)cc(O)c12,cell viability,[1],1.13
same,cell viability,[2],1.18
CCC(C)(C)c1ccc(CC(C)CN2C[C@@H](C)O[C@@H](C)C2)cc1 (some centres not stated),cell viability,[1],0.982
same,cell viability,[2],0.852
Cn1c(=O)c2c(ncn2CC(=O)O)n(C)c1=O,cell viability,[1],0.837
same,cell viability,[2],0.985
O=C(O)c1ccc(C(=O)O)o1,cell viability,[1],0.967
same,cell viability,[2],0.908
C=C1C[C@@]23CC[C@H]4[C@@](C)(CCC[C@@]4(C)C(=O)O[C@@H]4O[C@H](CO)[C@@H](O)[C@H](O)[C@H]4O)[C@@H]2CC[C@]1(O[C@@H]1O[C@H](CO)[C@@H](O)[C@H](O)[C@H]1O[C@@H]1O[C@H](CO)[C@@H](O)[C@H](O)[C@H]1O)C3,cell viability,[1],1.18
same,cell viability,[2],1
COC(=O)C[C@](O)(CCCC(C)(C)O)C(=O)O[C@@H]1C(OC)=C[C@]23CCCN2CCc2cc4c(cc2[C@H]13)OCO4,cell viability,[1],0.453
same,cell viability,[2],0.697
Cc1nc(C)c(C)nc1C,cell viability,[1],0.997
same,cell viability,[2],1.02
CC/C=C\C/C=C\C/C=C\C/C=C\C/C=C\C/C=C\CCC(=O)O,cell viability,[1],1.13
same,cell viability,[2],0.81
CCC[C@@H]1C[C@@H](C(=O)N[C@@H]([C@H]2O[C@H](SC)[C@H](O)[C@@H](O)[C@H]2O)[C@@H](C)O)N(C)C1,cell viability,[1],0.935
same,cell viability,[2],1.01
CCCCCCC(O)C(=O)O (configuration not stated),cell viability,[1],0.942
same,cell viability,[2],0.862
CC(=O)Nc1ccc(O)cc1,cell viability,[1],0.729
same,cell viability,[2],0.963
COc1ccc(-c2coc3cc(O[C@@H]4O[C@H](CO)[C@@H](O)[C@H](O)[C@H]4O)ccc3c2=O)cc1,cell viability,[1],1.03
same,cell viability,[2],1.05
C[C@@]12C[C@@]3(O)O[C@@H](O1)[C@]1(COC(=O)c4ccccc4)[C@H]3C[C@@]12O[C@@H]1O[C@H](CO)[C@@H](O)[C@H](O)[C@H]1O,cell viability,[1],1.14
same,cell viability,[2],0.957

# A section from the list above, for reference:
structure (smiles),measurement,setting,value
Cc1cc(O)cc(O[C@@H]2O[C@H](CO)[C@@H](O)[C@H](O)[C@H]2O)c1,cell viability,[2],0.909
CN1CCN(c2c(F)cc3c(=O)c(C(=O)O)cn4c3c2OCN4C)CC1,cell viability,[1],0.873
same,cell viability,[2],0.814
Nc1ncnc2c1ncn2[C@@H]1O[C@H](COP(=O)(O)OP(=O)(O)OP(=O)(O)O)[C@@H](O)[C@H]1O,cell viability,[1],0.91 and 1.11
